In the supplement of paper PMC6418307:
Single values of this set are uncertain.

System: primary mouse cortical neurons
Assay: cell health score (luciferase spike-in reads / total reads per well) (fraction); higher = fewer cellular reads, worse cell health / toxicity
Settings: treatment time 24 h
[1] = 0.01 µM, sex of neuron culture: Female
[2] = 0.01 µM, sex of neuron culture: Male
[3] = 0.1 µM, sex of neuron culture: Female
[4] = 0.1 µM, sex of neuron culture: Male
[5] = 1 µM, sex of neuron culture: Female
[6] = 1 µM, sex of neuron culture: Male
[7] = 10 µM, sex of neuron culture: Female
[8] = 10 µM, sex of neuron culture: Male

Structure (SMILES) | cell health score [1] | cell health score [2] | cell health score [3] | cell health score [4] | cell health score [5] | cell health score [6] | cell health score [7] | cell health score [8]
CCOP(=O)(SC(C)CC)N1CCSC1=O (stereo unspecified) [Fosthiazate] | 0.00102 | 0.000721 | 0.000978 | 0.00145 | 0.000678 | 0.00102 | 0.000704 | 0.000459
O=c1c(-c2ccc(O)cc2)coc2cc(O)cc(O)c12 [Genistein] | 0.000598 | 0.00067 | 0.000555 | 0.000872 | 0.000982 | 0.000711 | 0.00136 | 0.000847
O=C(O)CNCP(=O)(O)O [Glyphosate] | 0.000474 | 0.000684 | 0.000652 | 0.000713 | 0.000725 | 0.000317 | 0.000712 | 0.000481
CCCCC(O)(Cn1cncn1)c1ccc(Cl)cc1Cl (stereo unspecified) [Hexaconazole] | 0.000447 | 0.000952 | 0.00155 | 0.000948 | 0.000777 | 0.000793 | 0.00259 | 0.00168
CN(C)c1nc(=O)n(C2CCCCC2)c(=O)n1C [Hexazinone] | 0.000572 | 0.000694 | 0.000957 | 0.000686 | 0.000812 | 0.00104 | 0.0014 | 0.000675
C[C@@H]1[C@@H](c2ccc(Cl)cc2)SC(=O)N1C(=O)NC1CCCCC1 [Hexythiazox] | 0.000395 | 0.000923 | 0.00102 | 0.000721 | 0.000962 | 0.000634 | 0.00104 | 0.00106
CC(C(C)N1CC(=O)NC(=O)C1)N1CC(=O)NC(=O)C1 (stereo unspecified) [ICRF193] | 0.000716 | 0.000844 | 0.000996 | 0.000919 | 0.000957 | 0.00106 | 0.00137 | 0.00106
CCC(C)OC(=O)N1CCCCC1CCO (stereo unspecified) [Icaridin] | 0.000494 | 0.000937 | 0.000804 | 0.000662 | 0.000548 | 0.000418 | 0.000904 | 0.00059
C=CCOC(Cn1ccnc1)c1ccc(Cl)cc1Cl (stereo unspecified) [Imazalil] | 0.000376 | 0.000811 | 0.000985 | 0.0012 | 0.00078 | 0.000618 | 0.00197 | 0.00051
COCc1cnc(C2=NC(C)(C(C)C)C(=O)N2)c(C(=O)O)c1 (stereo unspecified) [Imazamox] | 0.000659 | 0.000696 | 0.000727 | 0.000628 | 0.000874 | 0.000926 | 0.000957 | 0.000533
Cc1cnc(C2=NC(=O)C(C)(C(C)C)N2)c(C(=O)O)c1 (stereo unspecified) [Imazapic] | 0.000595 | 0.000719 | 0.00071 | 0.000612 | 0.00097 | 0.000289 | 0.000882 | 0.000748
CC(C)C1(C)N=C(c2ncccc2C(=O)O)NC1=O (stereo unspecified) [Imazapyr] | 0.000484 | 0.00074 | 0.0013 | 0.000788 | 0.000914 | 0.000538 | 0.00111 | 0.000563
CC(C)C1(C)N=C(c2nc3ccccc3cc2C(=O)O)NC1=O (stereo unspecified) [Imazaquin] | 0.00079 | 0.000848 | 0.000619 | 0.000709 | 0.000872 | 0.00039 | 0.00123 | 0.000552
CCc1cnc(C2=NC(C)(C(C)C)C(=O)N2)c(C(=O)O)c1 (stereo unspecified) [Imazethapyr] | 0.00063 | 0.000672 | 0.00142 | 0.00123 | 0.000753 | 0.000621 | 0.0014 | 0.000542
O=[N+]([O-])/N=C1\NCCN1Cc1ccc(Cl)nc1 [Imidacloprid] | 0.000568 | 0.00113 | 0.000508 | 0.001 | 0.000854 | 0.000397 | 0.000967 | 0.000508
COC(=O)N(C(=O)N1CO[C@@]2(C(=O)OC)Cc3cc(Cl)ccc3C2=N1)c1ccc(OC(F)(F)F)cc1 [Indoxacarb] | 0.00126 | 0.000781 | 0.000819 | 0.000954 | 0.000725 | 0.000628 | 0.00171 | 0.000625
COC(=O)c1ccc(I)cc1S(=O)(=O)NC(=O)Nc1nc(C)nc(OC)n1 [Iodosulfuron-methyl-sodium] | 0.00058 | 0.000892 | 0.000656 | 0.000777 | 0.000927 | 0.000787 | 0.00097 | 0.000668
CC(C)NC(=O)N1CC(=O)N(c2cc(Cl)cc(Cl)c2)C1=O [Iprodione] | 0.000433 | 0.000651 | 0.000758 | 0.000798 | 0.000948 | 0.000911 | 0.000949 | 0.000731
CCc1c2c(nc3ccc(OC(=O)N4CCC(N5CCCCC5)CC4)cc13)-c1cc3c(c(=O)n1C2)COC(=O)[C@]3(O)CC [Irinotecan] | 0.000435 | 0.000792 | 0.000855 | 0.000832 | 0.000892 | 0.000571 | 0.000744 | 0.000284
CCOP(=S)(OCC)Oc1nc(Cl)n(C(C)C)n1 [Isazofos] | 0.000639 | 0.000821 | 0.000846 | 0.000913 | 0.00087 | 0.000753 | 0.000956 | 0.000552
CCC(C)(CC)c1cc(NC(=O)c2c(OC)cccc2OC)on1 [Isoxaben] | 0.000528 | 0.000669 | 0.00167 | 0.00104 | 0.00147 | 0.000643 | 0.00123 | 0.00056
CS(=O)(=O)c1cc(C(F)(F)F)ccc1C(=O)c1cnoc1C1CC1 [Isoxaflutole] | 0.000764 | 0.000657 | 0.000649 | 0.000734 | 0.000767 | 0.000907 | 0.000852 | 0.000575

Just cell health score [5], for two of the compounds above:
Structure (SMILES)	cell health score [5]
C[C@@H]1[C@@H](c2ccc(Cl)cc2)SC(=O)N1C(=O)NC1CCCCC1 [Hexythiazox]	0.000962
CC(C(C)N1CC(=O)NC(=O)C1)N1CC(=O)NC(=O)C1 (stereo unspecified) [ICRF193]	0.000957
